Measured values: patent US20130059876A1, “LIQUID NASAL SPRAY CONTAINING LOW-DOSE NALTREXONE” (L Molteni & C Dei Fratelli Alitti Societa Di Esercizio S.p.A, priority 2010, published 2013)

Test system: patients
Conditions: patients (total number 80) before treatment with Naltrexone

Compound: CN1CC[C@]23c4c5ccc(O)c4O[C@H]2[C@@H](O)C=C[C@H]3[C@H]1C5 [morphine]
- Incidence of adverse effects from morphine: Urinary retention: 40%
